In article doi:10.1101/2020.03.27.011528:
These are yes or no findings as the source states them, for the method shown. Binding seen in cells or lysates may run through a third protein. Some binding calls cover weakened binding; strength is not graded here.

Chains of the proteins cited; added tags and fusions are not shown. Residues count along the entry.
UniProt P38646, residues 47-679: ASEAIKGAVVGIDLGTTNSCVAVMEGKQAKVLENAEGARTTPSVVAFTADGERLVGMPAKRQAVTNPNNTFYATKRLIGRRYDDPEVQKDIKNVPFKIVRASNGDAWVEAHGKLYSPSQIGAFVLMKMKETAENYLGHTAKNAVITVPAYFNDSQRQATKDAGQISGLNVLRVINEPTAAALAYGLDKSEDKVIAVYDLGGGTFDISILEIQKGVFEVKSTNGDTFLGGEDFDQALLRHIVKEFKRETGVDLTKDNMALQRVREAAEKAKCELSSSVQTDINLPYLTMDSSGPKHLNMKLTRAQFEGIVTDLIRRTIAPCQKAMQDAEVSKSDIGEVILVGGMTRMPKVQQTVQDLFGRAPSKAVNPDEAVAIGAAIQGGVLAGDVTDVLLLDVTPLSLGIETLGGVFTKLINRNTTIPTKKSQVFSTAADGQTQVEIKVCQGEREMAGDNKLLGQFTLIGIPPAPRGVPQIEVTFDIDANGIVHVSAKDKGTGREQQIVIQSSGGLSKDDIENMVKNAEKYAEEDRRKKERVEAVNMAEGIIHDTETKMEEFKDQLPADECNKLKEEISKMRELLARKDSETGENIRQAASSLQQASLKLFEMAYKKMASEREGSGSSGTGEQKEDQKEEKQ
UniProt P21796: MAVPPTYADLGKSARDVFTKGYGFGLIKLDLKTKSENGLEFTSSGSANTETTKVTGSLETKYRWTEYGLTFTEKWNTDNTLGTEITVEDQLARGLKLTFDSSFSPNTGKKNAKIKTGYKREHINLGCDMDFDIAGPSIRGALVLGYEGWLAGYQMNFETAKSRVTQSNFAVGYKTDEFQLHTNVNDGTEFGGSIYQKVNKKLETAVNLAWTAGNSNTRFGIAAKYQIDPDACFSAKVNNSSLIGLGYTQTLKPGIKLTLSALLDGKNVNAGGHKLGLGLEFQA

Target: glucose regulated protein 75 (GRP75) (human (endogenous in SH-SY5Y)) (UniProt P38646)
Test: proximity ligation

binding: binds
Substance: voltage-dependent anionic channel 1 (VDAC1) (from UniProt P21796 1-283)
